PubChem BioAssay AID743454 – Peter MacCallum Cancer Centre, 2014
Test: 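Search for knock-downs that restore vorinostat killing in resistant colon cancer cells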 (primary screen). System: human HCT116-VR colon cancer cells, selected for vorinostat resistance. Knock-down reagent: siRNA pool against human genes, 40 nM siRNA pool. Time to read-out: vorinostat for 24 h, read-out about 72 h after transfection. Conditions: vorinostat at 2.5 µM final. Detection: 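Cell viability by CellTiter-Fluor and caspase 3/7 activity by luminescence, each scaled to mock wells per plate, duplicates averaged, then robust z-scored over all plates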. Reading the numbers: viability robust z-score: higher = more viable cells than screen typical; caspase robust z-score: higher = more caspase 3/7 activity than screen typical. Hit rule: 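a knock-down is a hit when classed RV1 or RV2 for lowered viability, or CA1 or CA2 for caspase activation; those lethal without drug were dropped; hits were retested singly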.
In all, the deposit lists about 18,000 reagents; shown is a random part of them. 450 of all reagents (2.5%) were called active. 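Single biological run; no consistent viability z cut-off exists, so the class columns, not z-scores, define the calls.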 Reagent sequences are not shown.

POU5F2 (GeneID 134187)
- viability hit class: no change
- caspase hit class: no change
- viability robust z-score: -1.4
- caspase robust z-score: -0.58
- outcome: inactive

DIPK2A (GeneID 205428)
- viability hit class: no change
- caspase hit class: no change
- viability robust z-score: 0.5
- caspase robust z-score: 1.2
- outcome: inactive

FCRL3 (GeneID 115352)
- viability hit class: no change
- caspase hit class: no change
- viability robust z-score: 1.92
- caspase robust z-score: 0.29
- outcome: inactive

FAM162A (GeneID 26355)
- viability hit class: no change
- caspase hit class: no change
- viability robust z-score: 0.63
- caspase robust z-score: -0.18
- outcome: inactive

ACBD4 (GeneID 79777)
- viability hit class: no change
- caspase hit class: no change
- viability robust z-score: 0.52
- caspase robust z-score: 0.12
- outcome: inactive

ZNF267 (GeneID 10308)
- viability hit class: no change
- caspase hit class: no change
- viability robust z-score: 0.98
- caspase robust z-score: 0.88
- outcome: inactive

LIG1 (GeneID 3978)
- viability hit class: no change
- caspase hit class: no change
- viability robust z-score: -0.15
- caspase robust z-score: 0.04
- outcome: inactive

STRADA (GeneID 92335)
- viability hit class: no change
- caspase hit class: no change
- viability robust z-score: 0.11
- caspase robust z-score: -0.48
- outcome: inactive

CFI (GeneID 3426)
- viability hit class: no change
- caspase hit class: no change
- viability robust z-score: -0.62
- caspase robust z-score: 2.98
- outcome: inactive

DDX50 (GeneID 79009)
- viability hit class: no change
- caspase hit class: no change
- viability robust z-score: 1.65
- caspase robust z-score: -0.16
- outcome: inactive

SRC (GeneID 6714)
- viability hit class: no change
- caspase hit class: no change
- viability robust z-score: -1.16
- caspase robust z-score: -0.72
- outcome: inactive

NFIA (GeneID 4774)
- viability hit class: no change
- caspase hit class: no change
- viability robust z-score: 0.07
- caspase robust z-score: 1.22
- outcome: inactive

DNAAF2 (GeneID 55172)
- viability hit class: no change
- caspase hit class: no change
- viability robust z-score: -0.48
- caspase robust z-score: 0.1
- outcome: inactive

TP53INP1 (GeneID 94241)
- viability hit class: no change
- caspase hit class: no change
- viability robust z-score: 0.55
- caspase robust z-score: 2.16
- outcome: inactive

PRR19 (GeneID 284338)
- viability hit class: no change
- caspase hit class: no change
- viability robust z-score: 0.47
- caspase robust z-score: -0.57
- outcome: inactive

RNF185 (GeneID 91445)
- viability hit class: no change
- caspase hit class: no change
- viability robust z-score: -0.45
- caspase robust z-score: -0.74
- outcome: inactive

RALGDS (GeneID 5900)
- viability hit class: no change
- caspase hit class: no change
- viability robust z-score: 1.03
- caspase robust z-score: -0.18
- outcome: inactive

FXYD3 (GeneID 5349)
- viability hit class: no change
- caspase hit class: no change
- viability robust z-score: -0.02
- caspase robust z-score: 0.96
- outcome: inactive

KRTAP4-5 (GeneID 85289)
- viability hit class: no change
- caspase hit class: no change
- viability robust z-score: 0.06
- caspase robust z-score: 0.06
- outcome: inactive

TMED10 (GeneID 10972)
- viability hit class: no change
- caspase hit class: no change
- viability robust z-score: -1.17
- caspase robust z-score: 0.62
- outcome: inactive

H1-10 (GeneID 8971)
- viability hit class: no change
- caspase hit class: no change
- viability robust z-score: -1.37
- caspase robust z-score: 0.46
- outcome: inactive

Part of the list above, limited to “caspase robust z-score”:
ZNF267 (GeneID 10308) = 0.88
LIG1 (GeneID 3978) = 0.04
STRADA (GeneID 92335) = -0.48
